# Test results reported in the supplement of paper PMC8728848.
# The other results are listed elsewhere or left out.
# B1: SfaEH (Escherichia coli), Q1RDG5 (protein)
# chain: LLCRNNQTGQVFNSGDTSFRVNVSPVVQYDKSISVLDLSQLVSCQNEDSTGQNYDYLKILKGSGFSPALDTKTYGRLDFTSRPTGYARQLPLQFDLQVTEAFYQYGVWKPFPAKLYLYPAPGVFGKVINNGDLLATLYVNKFSTKGQEAGERNFTWRFYATNDVYIQTGTCRVSSNNVKVDLPSYPGGPVTVPLTVRCDQTQSVSYTLSGPVTGSGNTVFANTAASGSGGVGIQLSDNVGPVPAGQPRSLGQVGSSPVSLGLKASYALTGQASPTPGAVQSVINVTFSYN
# What was measured:
# Assay in all cases: glycan array binding signal (z-score within array); higher = stronger binding
# Details in all cases: glycan notation: IUPAC condensed, linker removed
# [1] = target: Neu5Ac(a2-6)Gal(b1-4)GlcNAc(b1-3)Gal(b1-4)GlcNAc(b1-3)Gal(b1-4)GlcNAc(b1-2)Man(a1-3)[Neu5Ac(a2-6)Gal(b1-4)GlcNAc(b1-3)Gal(b1-4)GlcNAc(b1-3)Gal(b1-4)GlcNAc(b1-2)Man(a1-6)]GalNAc
# Outline: (§1)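 Columns mapping to the same glycan were averaged after glycan names were converted to IUPAC-condensed notation. The data come from 3228 arrays in the Consortium for Functional Glycomics database, limited to those with an available protein sequence. Binding is reported as a within-array Z-score averaged across arrays of one protein sequence and across linkers.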
# [2] = target: Neu5Ac(a2-6)Gal(b1-4)GlcNAc(b1-3)Gal(b1-4)GlcNAc(b1-3)GalNAc
# Outline: as §1
# [3] = target: Neu5Ac(a2-6)Gal(b1-4)GlcNAc(b1-3)Gal(b1-4)GlcNAc(b1-3)[Neu5Ac(a2-6)Gal(b1-4)GlcNAc(b1-3)Gal(b1-4)GlcNAc(b1-6)]GalNAc
# Outline: as §1
# [4] = target: Neu5Ac(a2-6)Gal(b1-4)GlcNAc(b1-3)Gal(b1-4)GlcNAc(b1-6)[Gal(b1-3)]GalNAc
# Outline: as §1
# [5] = target: Neu5Ac(a2-6)Gal(b1-4)GlcNAc(b1-3)Gal(b1-4)[Fuc(a1-3)]GlcNAc(b1-3)Gal(b1-4)[Fuc(a1-3)]GlcNAc
# Outline: as §1
# [6] = target: Neu5Ac(a2-6)Gal(b1-4)GlcNAc(b1-3)GalNAc
# Outline: as §1
# [7] = target: Neu5Ac(a2-6)Gal(b1-4)GlcNAc(b1-3)[Neu5Ac(a2-6)Gal(b1-4)GlcNAc(b1-6)]GalNAc
# Outline: as §1
# [8] = target: Neu5Ac(a2-6)Gal(b1-4)GlcNAc(b1-6)GalNAc
# Outline: as §1
# [9] = target: Neu5Ac(a2-6)Gal(b1-4)GlcNAc(b1-6)[Gal(b1-3)GlcNAc(b1-3)]Gal(b1-4)Glc
# Outline: as §1
# [10] = target: Neu5Ac(a2-6)Gal(b1-4)GlcNAc(b1-6)[Gal(b1-3)]GalNAc
# Outline: as §1
# [11] = target: Neu5Ac(a2-6)Gal(b1-4)GlcNAc6S
# Outline: as §1
# [12] = target: Neu5Ac(a2-6)GalNAc
# Outline: as §1
# [13] = target: Neu5Ac(a2-6)GalNAc(b1-4)GlcNAc
# Outline: as §1
# [14] = target: Neu5Ac(a2-6)GalNAc(b1-4)GlcNAc6S
# Outline: as §1
# [15] = target: Neu5Ac(a2-6)GlcNAc(b1-4)GlcNAc
# Outline: as §1
# [16] = target: Neu5Ac(a2-6)GlcNAc(b1-4)GlcNAc(b1-4)GlcNAc
# Outline: as §1
# [17] = target: Neu5Ac(a2-8)Neu5Ac
# Outline: as §1
# [18] = target: Neu5Ac(a2-8)Neu5Ac(a2-3)Gal(b1-3)GalNAc(b1-4)[Neu5Ac(a2-3)]Gal(b1-4)Glc
# Outline: as §1
# [19] = target: Neu5Ac(a2-8)Neu5Ac(a2-3)Gal(b1-3)GalNAc(b1-4)[Neu5Ac(a2-8)Neu5Ac(a2-3)]Gal(b1-4)Glc
# Outline: as §1
# [20] = target: Neu5Ac(a2-8)Neu5Ac(a2-3)Gal(b1-4)Glc
# Outline: as §1
# [21] = target: Neu5Ac(a2-8)Neu5Ac(a2-3)Gal(b1-4)GlcNAc
# Outline: as §1
# [22] = target: Neu5Ac(a2-8)Neu5Ac(a2-3)[Gal(b1-3)GalNAc(b1-4)]Gal(b1-4)Glc
# Outline: as §1
# [23] = target: Neu5Ac(a2-8)Neu5Ac(a2-3)[GalNAc(b1-4)]Gal(b1-4)Glc
# Outline: as §1
# [24] = target: Neu5Ac(a2-8)Neu5Ac(a2-8)Neu5Ac
# Outline: as §1
# [25] = target: Neu5Ac(a2-8)Neu5Ac(a2-8)Neu5Ac(a2-3)Gal(b1-4)Glc
# Outline: as §1
# [26] = target: Neu5Ac(a2-8)Neu5Ac(a2-8)Neu5Ac(a2-3)[Gal(b1-3)GalNAc(b1-4)]Gal(b1-4)Glc
# Outline: as §1
# [27] = target: Neu5Ac(a2-8)Neu5Ac(a2-8)Neu5Ac(a2-3)[GalNAc(b1-4)]Gal(b1-4)Glc
# Outline: as §1
# [28] = target: Neu5Ac(a2-8)Neu5Ac(a2-8)Neu5Ac(a2-8)Neu5Ac(a2-3)[GalNAc(b1-4)]Gal(b1-4)Glc
# Outline: as §1
# [29] = target: Neu5Ac(a2-8)Neu5Gc(a2-3)Gal(b1-4)GlcNAc
# Outline: as §1
# [30] = target: Neu5Ac(b2-6)Gal(b1-4)GlcNAc
# Outline: as §1
# [31] = target: Neu5Ac(b2-6)GalNAc
# Outline: as §1
# [32] = target: Neu5Ac9Ac(a2-3)Gal(b1-4)GlcNAc
# Outline: as §1
# [33] = target: Neu5Ac9Ac(a2-6)Gal(b1-4)GlcNAc
# Outline: as §1
# [34] = target: Neu5Gc(a2-3)Gal(b1-3)GlcNAc
# Outline: as §1
# [35] = target: Neu5Gc(a2-3)Gal(b1-3)[Fuc(a1-4)]GlcNAc
# Outline: as §1
# [36] = target: Neu5Gc(a2-3)Gal(b1-4)Glc
# Outline: as §1
# [37] = target: Neu5Gc(a2-3)Gal(b1-4)GlcNAc
# Outline: as §1
# [38] = target: Neu5Gc(a2-3)Gal(b1-4)GlcNAc(b1-3)Gal(b1-4)GlcNAc(b1-2)Man(a1-3)[Neu5Gc(a2-3)Gal(b1-4)GlcNAc(b1-3)Gal(b1-4)GlcNAc(b1-2)Man(a1-6)]Man(b1-4)GlcNAc(b1-4)GlcNAc
# Outline: as §1
# [39] = target: Neu5Gc(a2-3)Gal(b1-4)[Fuc(a1-3)]GlcNAc
# Outline: as §1
# [40] = target: Neu5Gc(a2-6)Gal(b1-4)GlcNAc
# Outline: as §1
# [41] = target: Neu5Gc(a2-6)GalNAc
# Outline: as §1
# [42] = target: Neu5Gc(a2-8)Neu5Ac(a2-3)Gal(b1-4)GlcNAc
# Outline: as §1
# [43] = target: Neu5Gc(a2-8)Neu5Gc(a2-3)Gal(b1-4)GlcNAc
# Outline: as §1
# [44] = target: Neu5Gc(a2-8)Neu5Gc(a2-3)Gal(b1-4)GlcNAc(b1-3)Gal(b1-4)GlcNAc
# Outline: as §1
# [45] = target: Neu5Gc(a2-8)Neu5Gc(a2-6)Gal(b1-4)GlcNAc
# Outline: as §1
binder,measurement,setting,value
B1,glycan array binding signal (z-score),[1],0.387
same,glycan array binding signal (z-score),[2],-0.826
same,glycan array binding signal (z-score),[3],0.149
same,glycan array binding signal (z-score),[4],0.079
same,glycan array binding signal (z-score),[5],-0.154
same,glycan array binding signal (z-score),[6],-0.906
same,glycan array binding signal (z-score),[7],2.22
same,glycan array binding signal (z-score),[8],0.382
same,glycan array binding signal (z-score),[9],0.131
same,glycan array binding signal (z-score),[10],0.841
same,glycan array binding signal (z-score),[11],0.154
same,glycan array binding signal (z-score),[12],0.409
same,glycan array binding signal (z-score),[13],-0.131
same,glycan array binding signal (z-score),[14],-0.6
same,glycan array binding signal (z-score),[15],-0.508
same,glycan array binding signal (z-score),[16],1.19
same,glycan array binding signal (z-score),[17],0.125
same,glycan array binding signal (z-score),[18],1.34
same,glycan array binding signal (z-score),[19],1.01
same,glycan array binding signal (z-score),[20],0.69
same,glycan array binding signal (z-score),[21],-0.28
same,glycan array binding signal (z-score),[22],-0.016
same,glycan array binding signal (z-score),[23],0.178
same,glycan array binding signal (z-score),[24],0.078
same,glycan array binding signal (z-score),[25],0.437
same,glycan array binding signal (z-score),[26],0.954
same,glycan array binding signal (z-score),[27],-0.874
same,glycan array binding signal (z-score),[28],-0.666
same,glycan array binding signal (z-score),[29],-0.786
same,glycan array binding signal (z-score),[30],0.418
same,glycan array binding signal (z-score),[31],-0.605
same,glycan array binding signal (z-score),[32],-0.618
same,glycan array binding signal (z-score),[33],-0.071
same,glycan array binding signal (z-score),[34],-0.062
same,glycan array binding signal (z-score),[35],-0.549
same,glycan array binding signal (z-score),[36],-0.315
same,glycan array binding signal (z-score),[37],-0.397
same,glycan array binding signal (z-score),[38],-0.442
same,glycan array binding signal (z-score),[39],0.13
same,glycan array binding signal (z-score),[40],-0.572
same,glycan array binding signal (z-score),[41],-0.577
same,glycan array binding signal (z-score),[42],-0.503
same,glycan array binding signal (z-score),[43],0.37
same,glycan array binding signal (z-score),[44],-0.69
same,glycan array binding signal (z-score),[45],2.33

# As a short view, part of the list above:
binder,measurement,setting,value
B1,glycan array binding signal (z-score),[39],0.13
same,glycan array binding signal (z-score),[40],-0.572
